Assay results: PMC5571359, “Screening the Medicines for Malaria Venture Pathogen Box across Multiple Pathogens Reclassifies Starting Points for Open-Source Drug Discovery” (Antimicrobial Agents and Chemotherapy, 2017)

Columns and labels:
[1] = system: Plasmodium falciparum 3D7 asexual blood stage; test: microbe, parasite or virus in culture; conditions: 3D7, read-out: Antiplasmodial IC50 (ABS)
HEK293 cells = test: HEK293 resazurin cell cytotoxicity assay; conditions: Homo sapiens, HEK293, read-out: HEK % Inhibition 20uM/IC50 Discovery Biology (IA)

SMILES: CN1CCC[C@@H]1CCO[C@](C)(c1ccccc1)c1ccc(Cl)cc1 [MMV637229, clemastine, reference compound]
- IC50 [1]: 2200 nM
- IC50 (HEK293 cells): > 20000 nM
